According to the supplement of paper PMC6411743:
± gives the standard deviation of the averaged measurements. The list shows a part of the results.

Protein sequences, listed by entry. Tags and fused reporters are not part of them. Lines headed by an entry give the natural chain unless they say otherwise; changes in a name come on top.
UniProt Q5BKZ1: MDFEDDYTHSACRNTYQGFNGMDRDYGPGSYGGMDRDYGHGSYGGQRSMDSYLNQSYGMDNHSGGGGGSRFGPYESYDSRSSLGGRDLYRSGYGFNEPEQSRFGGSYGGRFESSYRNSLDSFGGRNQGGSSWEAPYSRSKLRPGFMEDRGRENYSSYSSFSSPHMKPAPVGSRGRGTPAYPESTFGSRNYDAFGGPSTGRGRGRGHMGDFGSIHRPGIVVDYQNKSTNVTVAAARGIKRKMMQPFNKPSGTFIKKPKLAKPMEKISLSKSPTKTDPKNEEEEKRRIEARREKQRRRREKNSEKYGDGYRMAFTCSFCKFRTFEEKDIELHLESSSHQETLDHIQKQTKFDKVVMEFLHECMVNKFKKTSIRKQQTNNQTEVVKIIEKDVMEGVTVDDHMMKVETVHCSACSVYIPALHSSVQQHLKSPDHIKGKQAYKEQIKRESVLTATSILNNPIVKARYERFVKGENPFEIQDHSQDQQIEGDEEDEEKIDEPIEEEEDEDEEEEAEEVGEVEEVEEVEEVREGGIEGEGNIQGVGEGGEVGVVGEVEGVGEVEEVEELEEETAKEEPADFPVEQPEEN
UniProt Q15311: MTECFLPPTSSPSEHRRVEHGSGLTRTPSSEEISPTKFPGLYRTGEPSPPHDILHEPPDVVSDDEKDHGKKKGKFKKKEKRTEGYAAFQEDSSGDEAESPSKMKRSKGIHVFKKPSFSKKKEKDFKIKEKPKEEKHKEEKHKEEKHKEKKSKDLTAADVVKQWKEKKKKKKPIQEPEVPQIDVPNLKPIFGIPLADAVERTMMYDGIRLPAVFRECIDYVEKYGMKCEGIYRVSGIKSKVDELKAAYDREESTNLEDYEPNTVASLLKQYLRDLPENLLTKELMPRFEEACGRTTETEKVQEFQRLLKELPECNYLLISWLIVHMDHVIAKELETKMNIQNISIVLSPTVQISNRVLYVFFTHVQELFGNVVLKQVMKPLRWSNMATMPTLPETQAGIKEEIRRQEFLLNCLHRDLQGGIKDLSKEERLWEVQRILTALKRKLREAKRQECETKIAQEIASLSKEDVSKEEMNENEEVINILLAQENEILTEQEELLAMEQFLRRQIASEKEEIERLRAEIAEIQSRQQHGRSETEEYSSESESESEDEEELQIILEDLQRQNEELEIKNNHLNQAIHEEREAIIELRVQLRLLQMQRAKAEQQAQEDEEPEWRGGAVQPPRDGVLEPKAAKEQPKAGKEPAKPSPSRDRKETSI
UniProt Q56VL3: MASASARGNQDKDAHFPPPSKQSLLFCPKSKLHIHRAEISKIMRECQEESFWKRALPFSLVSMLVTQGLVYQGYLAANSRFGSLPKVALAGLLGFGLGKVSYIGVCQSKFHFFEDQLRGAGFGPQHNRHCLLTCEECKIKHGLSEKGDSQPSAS
UniProt Q15329: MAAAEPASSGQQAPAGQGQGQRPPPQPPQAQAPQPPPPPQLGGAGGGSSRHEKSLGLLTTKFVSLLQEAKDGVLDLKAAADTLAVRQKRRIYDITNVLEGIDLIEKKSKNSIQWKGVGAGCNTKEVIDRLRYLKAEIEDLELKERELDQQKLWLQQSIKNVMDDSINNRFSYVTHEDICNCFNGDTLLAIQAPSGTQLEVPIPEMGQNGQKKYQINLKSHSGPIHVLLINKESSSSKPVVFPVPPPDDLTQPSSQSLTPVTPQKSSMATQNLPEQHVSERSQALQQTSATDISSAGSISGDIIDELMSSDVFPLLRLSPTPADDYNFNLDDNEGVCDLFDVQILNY
UniProt Q15208: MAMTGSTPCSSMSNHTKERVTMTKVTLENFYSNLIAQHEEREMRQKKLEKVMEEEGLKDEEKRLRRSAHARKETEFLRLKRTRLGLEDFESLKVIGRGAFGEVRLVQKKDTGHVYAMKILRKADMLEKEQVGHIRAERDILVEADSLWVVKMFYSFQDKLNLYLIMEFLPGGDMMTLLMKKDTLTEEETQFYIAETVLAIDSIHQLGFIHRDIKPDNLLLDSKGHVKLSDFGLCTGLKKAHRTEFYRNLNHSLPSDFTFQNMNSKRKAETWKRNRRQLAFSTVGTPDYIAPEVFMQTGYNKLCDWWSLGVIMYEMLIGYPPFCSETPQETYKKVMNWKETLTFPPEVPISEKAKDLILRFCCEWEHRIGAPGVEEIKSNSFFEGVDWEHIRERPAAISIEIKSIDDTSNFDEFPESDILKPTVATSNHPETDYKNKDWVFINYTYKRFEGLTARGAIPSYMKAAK
UniProt Q5T3I0: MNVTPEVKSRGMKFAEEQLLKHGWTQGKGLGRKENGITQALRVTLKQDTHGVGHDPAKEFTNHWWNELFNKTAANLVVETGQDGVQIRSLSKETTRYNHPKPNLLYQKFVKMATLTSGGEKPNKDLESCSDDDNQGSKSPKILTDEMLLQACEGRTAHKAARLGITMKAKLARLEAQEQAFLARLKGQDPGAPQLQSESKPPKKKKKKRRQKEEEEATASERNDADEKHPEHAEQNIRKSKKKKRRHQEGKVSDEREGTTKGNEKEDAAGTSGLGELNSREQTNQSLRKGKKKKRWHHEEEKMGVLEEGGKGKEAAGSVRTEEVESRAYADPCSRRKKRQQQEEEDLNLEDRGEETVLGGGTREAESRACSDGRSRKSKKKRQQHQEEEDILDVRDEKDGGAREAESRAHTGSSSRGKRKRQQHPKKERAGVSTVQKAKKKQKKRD
UniProt Q49B96: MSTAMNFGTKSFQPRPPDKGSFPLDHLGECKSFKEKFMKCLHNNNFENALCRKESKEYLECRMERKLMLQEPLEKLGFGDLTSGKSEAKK
UniProt Q3MIT2: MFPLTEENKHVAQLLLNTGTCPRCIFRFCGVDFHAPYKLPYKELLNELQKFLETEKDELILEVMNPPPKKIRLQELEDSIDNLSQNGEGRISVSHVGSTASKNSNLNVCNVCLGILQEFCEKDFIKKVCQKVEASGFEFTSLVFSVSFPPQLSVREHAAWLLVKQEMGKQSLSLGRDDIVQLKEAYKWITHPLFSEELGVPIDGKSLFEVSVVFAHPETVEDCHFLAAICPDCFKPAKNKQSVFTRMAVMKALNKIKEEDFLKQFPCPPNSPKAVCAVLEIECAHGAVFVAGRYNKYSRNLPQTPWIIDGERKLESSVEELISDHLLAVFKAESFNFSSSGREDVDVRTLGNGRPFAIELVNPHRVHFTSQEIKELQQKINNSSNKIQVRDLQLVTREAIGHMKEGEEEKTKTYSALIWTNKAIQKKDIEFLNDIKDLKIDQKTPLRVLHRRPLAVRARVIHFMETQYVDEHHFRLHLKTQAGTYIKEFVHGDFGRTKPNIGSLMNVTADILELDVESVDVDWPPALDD
UniProt Q15438: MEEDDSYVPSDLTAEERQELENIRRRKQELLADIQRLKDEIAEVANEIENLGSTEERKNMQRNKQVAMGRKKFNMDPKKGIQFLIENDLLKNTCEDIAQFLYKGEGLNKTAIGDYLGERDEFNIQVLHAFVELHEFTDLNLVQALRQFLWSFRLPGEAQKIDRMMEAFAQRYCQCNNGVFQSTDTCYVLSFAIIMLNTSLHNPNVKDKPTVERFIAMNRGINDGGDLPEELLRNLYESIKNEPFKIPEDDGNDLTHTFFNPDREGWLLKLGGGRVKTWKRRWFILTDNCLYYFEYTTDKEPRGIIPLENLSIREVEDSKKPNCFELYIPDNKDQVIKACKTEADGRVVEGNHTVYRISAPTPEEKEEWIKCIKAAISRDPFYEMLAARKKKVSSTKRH
UniProt Q14974, whole entry: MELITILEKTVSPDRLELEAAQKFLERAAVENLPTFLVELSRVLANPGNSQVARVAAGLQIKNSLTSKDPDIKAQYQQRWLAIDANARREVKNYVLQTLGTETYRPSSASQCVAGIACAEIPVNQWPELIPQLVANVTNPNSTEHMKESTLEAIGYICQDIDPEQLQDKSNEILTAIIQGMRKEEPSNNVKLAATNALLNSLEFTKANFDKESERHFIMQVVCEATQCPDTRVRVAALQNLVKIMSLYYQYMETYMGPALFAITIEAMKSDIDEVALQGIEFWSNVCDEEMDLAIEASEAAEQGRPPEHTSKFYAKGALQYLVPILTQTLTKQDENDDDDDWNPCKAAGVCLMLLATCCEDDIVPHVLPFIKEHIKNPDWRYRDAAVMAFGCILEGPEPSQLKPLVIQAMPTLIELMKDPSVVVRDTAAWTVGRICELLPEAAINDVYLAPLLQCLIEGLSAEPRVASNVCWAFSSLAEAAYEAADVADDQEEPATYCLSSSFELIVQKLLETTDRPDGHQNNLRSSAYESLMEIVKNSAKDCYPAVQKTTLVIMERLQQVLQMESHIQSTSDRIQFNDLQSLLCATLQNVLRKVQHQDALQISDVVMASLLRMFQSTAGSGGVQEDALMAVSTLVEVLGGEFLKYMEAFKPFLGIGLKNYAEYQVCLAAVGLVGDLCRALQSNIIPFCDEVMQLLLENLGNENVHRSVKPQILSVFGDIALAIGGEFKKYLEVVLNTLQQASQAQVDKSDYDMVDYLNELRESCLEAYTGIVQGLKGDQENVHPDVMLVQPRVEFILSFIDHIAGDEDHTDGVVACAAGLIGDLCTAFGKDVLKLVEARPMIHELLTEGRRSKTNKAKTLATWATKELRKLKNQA
UniProt Q15459: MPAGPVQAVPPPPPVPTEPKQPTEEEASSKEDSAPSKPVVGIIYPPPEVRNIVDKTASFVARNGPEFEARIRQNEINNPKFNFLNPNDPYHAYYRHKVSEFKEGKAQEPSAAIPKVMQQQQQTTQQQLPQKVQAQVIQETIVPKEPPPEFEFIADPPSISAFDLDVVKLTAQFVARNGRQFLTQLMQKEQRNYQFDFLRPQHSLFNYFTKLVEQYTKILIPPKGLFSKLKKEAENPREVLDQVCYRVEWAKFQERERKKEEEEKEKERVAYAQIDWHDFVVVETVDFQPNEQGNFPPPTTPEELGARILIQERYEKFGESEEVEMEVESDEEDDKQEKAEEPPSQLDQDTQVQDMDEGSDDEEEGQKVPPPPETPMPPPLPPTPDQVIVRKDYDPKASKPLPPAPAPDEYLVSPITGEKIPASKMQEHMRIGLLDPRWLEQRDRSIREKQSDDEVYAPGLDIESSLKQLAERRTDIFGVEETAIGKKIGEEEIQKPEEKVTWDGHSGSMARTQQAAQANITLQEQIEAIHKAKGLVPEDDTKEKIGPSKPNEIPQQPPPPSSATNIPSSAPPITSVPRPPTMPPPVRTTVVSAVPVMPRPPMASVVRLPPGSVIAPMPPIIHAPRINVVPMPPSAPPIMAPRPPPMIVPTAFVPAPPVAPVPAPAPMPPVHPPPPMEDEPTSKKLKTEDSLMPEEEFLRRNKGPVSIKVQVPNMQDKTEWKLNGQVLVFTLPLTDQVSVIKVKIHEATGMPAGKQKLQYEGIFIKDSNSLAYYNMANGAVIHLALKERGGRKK
UniProt Q14694, whole entry: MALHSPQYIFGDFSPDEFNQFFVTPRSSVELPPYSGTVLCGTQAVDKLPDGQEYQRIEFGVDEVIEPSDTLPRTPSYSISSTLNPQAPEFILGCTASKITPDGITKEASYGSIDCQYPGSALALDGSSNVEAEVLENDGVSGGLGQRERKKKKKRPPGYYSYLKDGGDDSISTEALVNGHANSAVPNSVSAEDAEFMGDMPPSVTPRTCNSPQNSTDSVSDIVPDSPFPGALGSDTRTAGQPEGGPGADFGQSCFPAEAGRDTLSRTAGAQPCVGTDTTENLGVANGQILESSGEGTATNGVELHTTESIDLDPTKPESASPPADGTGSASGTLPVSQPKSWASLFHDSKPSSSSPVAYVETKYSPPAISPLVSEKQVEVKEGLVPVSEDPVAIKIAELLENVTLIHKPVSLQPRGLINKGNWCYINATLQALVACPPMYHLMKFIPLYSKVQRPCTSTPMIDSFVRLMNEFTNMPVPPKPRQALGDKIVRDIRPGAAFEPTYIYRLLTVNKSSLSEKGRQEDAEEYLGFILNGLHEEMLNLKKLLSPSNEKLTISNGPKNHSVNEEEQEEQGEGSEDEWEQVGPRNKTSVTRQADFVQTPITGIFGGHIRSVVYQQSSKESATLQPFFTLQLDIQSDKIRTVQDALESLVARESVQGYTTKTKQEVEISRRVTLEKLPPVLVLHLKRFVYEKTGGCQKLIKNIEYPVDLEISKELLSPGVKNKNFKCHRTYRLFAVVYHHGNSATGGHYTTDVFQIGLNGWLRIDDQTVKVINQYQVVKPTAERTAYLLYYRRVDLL
UniProt Q15545, whole entry: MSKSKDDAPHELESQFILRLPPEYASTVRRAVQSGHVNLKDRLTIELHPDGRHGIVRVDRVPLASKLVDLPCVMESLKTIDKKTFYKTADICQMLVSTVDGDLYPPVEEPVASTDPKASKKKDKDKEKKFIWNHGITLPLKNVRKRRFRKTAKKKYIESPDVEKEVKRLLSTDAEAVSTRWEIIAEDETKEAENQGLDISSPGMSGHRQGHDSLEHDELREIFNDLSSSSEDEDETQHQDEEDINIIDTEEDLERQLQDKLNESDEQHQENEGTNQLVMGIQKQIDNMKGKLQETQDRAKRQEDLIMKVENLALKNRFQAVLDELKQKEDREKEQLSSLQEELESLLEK

Each target was assayed with Nc1nc2c(ncn2[C@@H]2O[C@H](COP(=O)(O)OP(=O)(O)OP(=O)(O)O)[C@@H](O)[C@H]2O)c(=O)[nH]1 [guanosine triphosphate] (assay: NP40-soluble protein abundance relative to vehicle (solubility fold change) (ratio); higher = more soluble protein in presence of GTP). Settings: concentration: 0.1mM.
Procedure, shortened: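 Jurkat crude lysate (Dounce-homogenised) was treated with eight concentrations from 0.1 to 10 mM for 10 min at room temperature, then 3 min at 37 °C. It was solubilised with 0.8% NP40 and benzonase (60 min, 4 °C) and ultracentrifuged, and the supernatant was TMT-labelled for LC-MS/MS. Intensities were vsn-normalised, and the value is the fold change against the NP40-processed vehicle per replicate, from three independent experiments.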

**Q.** With ZNF326 (UniProt Q5BKZ1) as the target, how does the NP40-soluble protein abundance read?
**A.** 1.14 ± 0.09

**Q.** With FKBP15 (UniProt Q5T1M5) as the target, how does the NP40-soluble protein abundance read?
**A.** 0.995 ± 0.078

**Q.** How did the NP40-soluble protein abundance turn out when RALBP1 (UniProt Q15311) was run?
**A.** 0.981 ± 0.056

**Q.** How did the NP40-soluble protein abundance turn out when C9orf64 (UniProt Q5T6V5) was run?
**A.** 1.09 ± 0.049

**Q.** UniProt Q15652 and related entries was tested. Which NP40-soluble protein abundance did it give?
**A.** 0.969 ± 0.057

**Q.** Which NP40-soluble protein abundance does the source give for OCIAD2 (UniProt Q56VL3) here?
**A.** 0.943 ± 0.036

**Q.** Which NP40-soluble protein abundance does the source give for UniProt Q4V328 and related entries here?
**A.** 0.957 ± 0.046

**Q.** Which NP40-soluble protein abundance does the source give for UniProt Q15054 and related entries here?
**A.** 0.962 ± 0.083

**Q.** For BRD3 (UniProt Q15059), which NP40-soluble protein abundance is on record?
**A.** 0.961 ± 0.043

**Q.** How did the NP40-soluble protein abundance turn out when UniProt Q15329 and related entries was run?
**A.** 0.927 ± 0.13

**Q.** Which NP40-soluble protein abundance does the source give for UniProt Q15208 here?
**A.** 1.06 ± 0.11

**Q.** For UniProt Q5T3I0 and related entries, which NP40-soluble protein abundance is on record?
**A.** 0.995 ± 0.088

**Q.** IFI16 (UniProt Q16666) was tested. Which NP40-soluble protein abundance did it give?
**A.** 1.06 ± 0.013

**Q.** Which NP40-soluble protein abundance does the source give for UniProt Q15650 and related entries here?
**A.** 1.107 ± 0.011

**Q.** Which NP40-soluble protein abundance does the source give for COX19 (UniProt Q49B96) here?
**A.** 1.15 ± 0.16

**Q.** TRIP11 (UniProt Q15643) was tested. Which NP40-soluble protein abundance did it give?
**A.** 0.995 ± 0.022

**Q.** UniProt Q15042 was tested. Which NP40-soluble protein abundance did it give?
**A.** 1.1 ± 0.047

**Q.** Which NP40-soluble protein abundance does the source give for UniProt Q5SWX8 and related entries here?
**A.** 1.07 ± 0.052

**Q.** Which NP40-soluble protein abundance does the source give for PUS10 (UniProt Q3MIT2) here?
**A.** 1.09 ± 0.11

**Q.** How did the NP40-soluble protein abundance turn out when HNRNPA1L2 (UniProt Q32P51) was run?
**A.** 1.34 ± 0.52

**Q.** With PSME4 (UniProt Q14997) as the target, how does the NP40-soluble protein abundance read?
**A.** 1.09 ± 0.14

**Q.** Which NP40-soluble protein abundance does the source give for TBC1D10B (UniProt Q4KMP7) here?
**A.** 1.01 ± 0.031

**Q.** With UniProt Q15438 and related entries as the target, how does the NP40-soluble protein abundance read?
**A.** 1.03 ± 0.066

**Q.** Which NP40-soluble protein abundance does the source give for KPNB1 (UniProt Q14974) here?
**A.** 0.986 ± 0.053

**Q.** How did the NP40-soluble protein abundance turn out when PPP2R5A (UniProt Q15172) was run?
**A.** 1.04 ± 0.063

**Q.** UBAP2 (UniProt Q5T6F2) was tested. Which NP40-soluble protein abundance did it give?
**A.** 0.954 ± 0.05

**Q.** With SF3A1 (UniProt Q15459) as the target, how does the NP40-soluble protein abundance read?
**A.** 0.984 ± 0.028

**Q.** ADRM1 (UniProt Q16186) was tested. Which NP40-soluble protein abundance did it give?
**A.** 0.994 ± 0.046

**Q.** With UniProt Q14687 and related entries as the target, how does the NP40-soluble protein abundance read?
**A.** 1.01 ± 0.034

**Q.** With UniProt Q15542 and related entries as the target, how does the NP40-soluble protein abundance read?
**A.** 1.09 ± 0.092

**Q.** How did the NP40-soluble protein abundance turn out when SF3A2 (UniProt Q15428) was run?
**A.** 0.955 ± 0.035

**Q.** With UniProt Q15717 and related entries as the target, how does the NP40-soluble protein abundance read?
**A.** 0.9635 ± 0.0076

**Q.** How did the NP40-soluble protein abundance turn out when UniProt Q15853 and related entries was run?
**A.** 0.985 ± 0.05

**Q.** Which NP40-soluble protein abundance does the source give for UniProt Q52LJ0-2 here?
**A.** 0.8879 ± 0.0058

**Q.** How did the NP40-soluble protein abundance turn out when UniProt Q15796 and related entries was run?
**A.** 0.962 ± 0.031

**Q.** With UniProt Q14694 and related entries as the target, how does the NP40-soluble protein abundance read?
**A.** 1.01 ± 0.061

**Q.** For UniProt Q15084 and related entries, which NP40-soluble protein abundance is on record?
**A.** 0.908 ± 0.055

**Q.** How did the NP40-soluble protein abundance turn out when UniProt Q15545 and related entries was run?
**A.** 1.02 ± 0.11

Same assay, conditions: concentration: 0.5mM

**Q.** For ZNF326 (UniProt Q5BKZ1), which NP40-soluble protein abundance is on record?
**A.** 1.16 ± 0.13

**Q.** How did the NP40-soluble protein abundance turn out when FKBP15 (UniProt Q5T1M5) was run?
**A.** 0.997 ± 0.061

**Q.** Which NP40-soluble protein abundance does the source give for RALBP1 (UniProt Q15311) here?
**A.** 1.01 ± 0.013

**Q.** Which NP40-soluble protein abundance does the source give for C9orf64 (UniProt Q5T6V5) here?
**A.** 1.06 ± 0.037

**Q.** UniProt Q15652 and related entries was tested. Which NP40-soluble protein abundance did it give?
**A.** 0.987 ± 0.047

**Q.** With OCIAD2 (UniProt Q56VL3) as the target, how does the NP40-soluble protein abundance read?
**A.** 0.872 ± 0.017

**Q.** Which NP40-soluble protein abundance does the source give for UniProt Q4V328 and related entries here?
**A.** 0.926 ± 0.084

**Q.** For UniProt Q15054 and related entries, which NP40-soluble protein abundance is on record?
**A.** 0.953 ± 0.073

**Q.** BRD3 (UniProt Q15059) was tested. Which NP40-soluble protein abundance did it give?
**A.** 0.986 ± 0.097

**Q.** With UniProt Q15329 and related entries as the target, how does the NP40-soluble protein abundance read?
**A.** 0.9158 ± 0.0081

**Q.** For UniProt Q15208, which NP40-soluble protein abundance is on record?
**A.** 1.06 ± 0.12

**Q.** For UniProt Q5T3I0 and related entries, which NP40-soluble protein abundance is on record?
**A.** 1.05 ± 0.1

**Q.** For IFI16 (UniProt Q16666), which NP40-soluble protein abundance is on record?
**A.** 1.145 ± 0.0098

**Q.** For UniProt Q15650 and related entries, which NP40-soluble protein abundance is on record?
**A.** 1.07 ± 0.041

**Q.** For COX19 (UniProt Q49B96), which NP40-soluble protein abundance is on record?
**A.** 0.953 ± 0.12

**Q.** For TRIP11 (UniProt Q15643), which NP40-soluble protein abundance is on record?
**A.** 0.972 ± 0.052

**Q.** With UniProt Q15042 as the target, how does the NP40-soluble protein abundance read?
**A.** 1.03 ± 0.048

**Q.** With UniProt Q5SWX8 and related entries as the target, how does the NP40-soluble protein abundance read?
**A.** 1.09 ± 0.11

**Q.** With PUS10 (UniProt Q3MIT2) as the target, how does the NP40-soluble protein abundance read?
**A.** 1.13 ± 0.14
